This is one part of the list.
The targets below were run with O=C1NC(=O)C(c2cnc3ccccn23)=C1c1cn2c3c(cc(F)cc13)CN(C(=O)N1CCCCC1)CC2 (assay: log2 fold change, soluble protein after heating vs DMSO (PISA); higher = thermal stabilisation; K562 cells, 10 uM, 30 min; active = over 0.2 and 3.5 SD of the protein, either way, in both replicates (recomputed)).
Procedure, shortened: (§1)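 K562 cells at 2×10^6 cells/mL were given 10 μM compound for 30 min. Aliquots then went through 3 min of heating across 48°C-58°C, were pooled, and were extracted in PBS with 0.5% NP-40 at 4°C, and the supernatant after 21,000xg for 90 min was quantified by TMTpro 16plex LC-MS/MS with channel sums equalised. Thermal stability relative to control samples, from duplicates, is given as log2 fold change.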

Sequences of proteins named here, by UniProt entry; tags and fusion partners are left off. A change or cut given only in a name is not applied to a line headed by its entry.
UniProt Q9NZJ5: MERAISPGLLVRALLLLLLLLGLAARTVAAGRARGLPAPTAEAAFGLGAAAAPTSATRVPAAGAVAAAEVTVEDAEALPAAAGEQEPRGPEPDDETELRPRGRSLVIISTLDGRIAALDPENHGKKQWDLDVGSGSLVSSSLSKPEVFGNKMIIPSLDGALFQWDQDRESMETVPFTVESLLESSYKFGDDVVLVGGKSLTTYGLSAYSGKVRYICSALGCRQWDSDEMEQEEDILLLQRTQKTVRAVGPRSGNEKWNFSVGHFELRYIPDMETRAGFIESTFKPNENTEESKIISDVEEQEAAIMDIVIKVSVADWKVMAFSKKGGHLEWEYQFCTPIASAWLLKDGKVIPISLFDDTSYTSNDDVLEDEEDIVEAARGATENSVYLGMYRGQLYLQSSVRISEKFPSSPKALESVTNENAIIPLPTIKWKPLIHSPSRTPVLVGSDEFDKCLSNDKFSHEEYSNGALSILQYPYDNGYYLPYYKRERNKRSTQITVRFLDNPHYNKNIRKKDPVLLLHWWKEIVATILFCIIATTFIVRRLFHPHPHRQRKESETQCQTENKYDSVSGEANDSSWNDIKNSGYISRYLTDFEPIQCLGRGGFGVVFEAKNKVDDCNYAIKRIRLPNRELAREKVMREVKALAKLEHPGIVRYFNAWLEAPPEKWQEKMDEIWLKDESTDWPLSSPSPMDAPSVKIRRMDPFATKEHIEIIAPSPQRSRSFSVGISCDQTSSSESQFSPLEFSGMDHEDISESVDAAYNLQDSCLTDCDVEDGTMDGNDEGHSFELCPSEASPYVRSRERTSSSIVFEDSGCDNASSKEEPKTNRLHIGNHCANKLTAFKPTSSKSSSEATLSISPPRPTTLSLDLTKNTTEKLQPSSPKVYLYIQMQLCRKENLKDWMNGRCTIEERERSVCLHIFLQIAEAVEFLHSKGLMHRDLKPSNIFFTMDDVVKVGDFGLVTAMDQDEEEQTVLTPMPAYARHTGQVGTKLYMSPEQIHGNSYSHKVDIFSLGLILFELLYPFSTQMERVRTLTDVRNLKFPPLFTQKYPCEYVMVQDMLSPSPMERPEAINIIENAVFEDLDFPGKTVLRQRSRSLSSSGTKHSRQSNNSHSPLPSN
UniProt Q9Y227: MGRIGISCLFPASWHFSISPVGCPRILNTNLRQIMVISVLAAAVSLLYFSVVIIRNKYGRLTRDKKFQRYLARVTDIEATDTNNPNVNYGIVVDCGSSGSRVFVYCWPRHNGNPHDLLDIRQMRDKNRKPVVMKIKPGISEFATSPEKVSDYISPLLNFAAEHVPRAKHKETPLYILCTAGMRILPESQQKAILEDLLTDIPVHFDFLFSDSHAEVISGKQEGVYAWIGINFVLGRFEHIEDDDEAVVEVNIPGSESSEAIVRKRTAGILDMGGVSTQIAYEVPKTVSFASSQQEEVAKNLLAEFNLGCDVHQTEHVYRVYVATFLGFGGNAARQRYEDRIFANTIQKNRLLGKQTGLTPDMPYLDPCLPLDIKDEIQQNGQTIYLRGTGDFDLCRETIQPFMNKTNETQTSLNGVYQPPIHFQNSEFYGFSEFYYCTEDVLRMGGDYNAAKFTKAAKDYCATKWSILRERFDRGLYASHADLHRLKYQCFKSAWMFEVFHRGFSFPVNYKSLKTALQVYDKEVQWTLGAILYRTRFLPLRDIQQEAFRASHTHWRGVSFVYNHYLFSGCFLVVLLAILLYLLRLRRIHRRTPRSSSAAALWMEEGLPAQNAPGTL
UniProt Q9NQZ7: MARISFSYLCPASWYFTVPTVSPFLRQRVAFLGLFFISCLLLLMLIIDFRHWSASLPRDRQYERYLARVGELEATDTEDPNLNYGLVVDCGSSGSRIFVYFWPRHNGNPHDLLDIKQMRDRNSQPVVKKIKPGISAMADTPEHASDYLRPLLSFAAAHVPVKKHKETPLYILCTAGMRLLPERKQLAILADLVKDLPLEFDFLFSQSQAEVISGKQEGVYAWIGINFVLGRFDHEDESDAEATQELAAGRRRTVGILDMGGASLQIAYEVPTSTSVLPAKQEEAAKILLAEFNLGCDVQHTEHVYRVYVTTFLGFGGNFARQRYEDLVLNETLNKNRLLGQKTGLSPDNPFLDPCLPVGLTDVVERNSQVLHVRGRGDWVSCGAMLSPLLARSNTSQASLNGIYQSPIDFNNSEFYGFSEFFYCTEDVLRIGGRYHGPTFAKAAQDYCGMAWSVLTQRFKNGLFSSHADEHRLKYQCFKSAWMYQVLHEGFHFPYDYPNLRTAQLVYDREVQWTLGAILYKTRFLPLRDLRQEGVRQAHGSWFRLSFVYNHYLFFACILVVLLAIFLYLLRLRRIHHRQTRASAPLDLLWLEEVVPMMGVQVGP
UniProt O00418: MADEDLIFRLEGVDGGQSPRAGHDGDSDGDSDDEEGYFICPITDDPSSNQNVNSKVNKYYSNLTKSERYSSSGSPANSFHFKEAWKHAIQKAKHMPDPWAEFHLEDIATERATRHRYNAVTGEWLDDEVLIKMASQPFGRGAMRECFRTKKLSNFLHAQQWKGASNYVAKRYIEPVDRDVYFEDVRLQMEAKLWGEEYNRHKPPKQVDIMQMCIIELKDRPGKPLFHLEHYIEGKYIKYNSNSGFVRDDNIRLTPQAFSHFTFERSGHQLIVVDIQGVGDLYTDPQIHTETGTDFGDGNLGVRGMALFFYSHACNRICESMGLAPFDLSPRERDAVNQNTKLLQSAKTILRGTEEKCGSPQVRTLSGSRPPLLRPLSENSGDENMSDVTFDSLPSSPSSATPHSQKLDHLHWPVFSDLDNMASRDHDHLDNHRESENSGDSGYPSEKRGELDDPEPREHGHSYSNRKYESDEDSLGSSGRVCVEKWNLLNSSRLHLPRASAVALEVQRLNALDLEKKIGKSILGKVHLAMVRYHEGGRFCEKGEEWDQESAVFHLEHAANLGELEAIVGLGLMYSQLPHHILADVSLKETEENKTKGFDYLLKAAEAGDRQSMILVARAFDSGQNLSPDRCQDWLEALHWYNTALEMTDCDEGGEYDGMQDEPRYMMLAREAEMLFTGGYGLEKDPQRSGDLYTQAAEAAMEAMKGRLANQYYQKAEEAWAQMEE
UniProt O60739, whole entry, looked up: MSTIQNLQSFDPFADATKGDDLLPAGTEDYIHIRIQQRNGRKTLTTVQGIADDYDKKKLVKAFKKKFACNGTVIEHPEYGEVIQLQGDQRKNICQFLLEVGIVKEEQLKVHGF
UniProt Q9UI10, whole entry, looked up: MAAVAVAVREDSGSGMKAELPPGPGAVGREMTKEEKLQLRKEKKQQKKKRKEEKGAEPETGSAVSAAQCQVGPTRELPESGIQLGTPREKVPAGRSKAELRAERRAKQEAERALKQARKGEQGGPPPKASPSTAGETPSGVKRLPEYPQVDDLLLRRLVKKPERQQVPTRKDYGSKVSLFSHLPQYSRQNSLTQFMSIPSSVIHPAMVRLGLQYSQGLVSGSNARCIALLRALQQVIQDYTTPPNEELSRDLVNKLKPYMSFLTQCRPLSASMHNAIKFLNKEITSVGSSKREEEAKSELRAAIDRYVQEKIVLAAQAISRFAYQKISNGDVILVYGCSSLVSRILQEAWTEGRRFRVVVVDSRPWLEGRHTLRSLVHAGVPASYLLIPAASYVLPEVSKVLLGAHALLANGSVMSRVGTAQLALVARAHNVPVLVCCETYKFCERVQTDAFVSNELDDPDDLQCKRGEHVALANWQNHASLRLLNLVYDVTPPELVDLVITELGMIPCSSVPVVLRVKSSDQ
UniProt Q9Y6B2: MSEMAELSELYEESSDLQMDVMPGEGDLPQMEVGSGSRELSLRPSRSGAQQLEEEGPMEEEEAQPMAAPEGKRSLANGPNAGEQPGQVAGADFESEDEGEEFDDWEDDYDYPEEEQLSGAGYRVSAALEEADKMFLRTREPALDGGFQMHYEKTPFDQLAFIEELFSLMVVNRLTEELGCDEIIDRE
UniProt Q5VUJ9: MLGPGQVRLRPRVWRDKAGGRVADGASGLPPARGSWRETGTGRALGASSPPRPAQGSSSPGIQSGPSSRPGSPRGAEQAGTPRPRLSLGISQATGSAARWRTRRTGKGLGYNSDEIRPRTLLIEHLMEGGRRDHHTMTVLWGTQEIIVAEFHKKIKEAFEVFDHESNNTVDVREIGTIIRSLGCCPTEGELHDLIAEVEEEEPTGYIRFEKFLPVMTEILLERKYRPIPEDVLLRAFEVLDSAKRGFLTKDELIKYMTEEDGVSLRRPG
UniProt Q9H0I2: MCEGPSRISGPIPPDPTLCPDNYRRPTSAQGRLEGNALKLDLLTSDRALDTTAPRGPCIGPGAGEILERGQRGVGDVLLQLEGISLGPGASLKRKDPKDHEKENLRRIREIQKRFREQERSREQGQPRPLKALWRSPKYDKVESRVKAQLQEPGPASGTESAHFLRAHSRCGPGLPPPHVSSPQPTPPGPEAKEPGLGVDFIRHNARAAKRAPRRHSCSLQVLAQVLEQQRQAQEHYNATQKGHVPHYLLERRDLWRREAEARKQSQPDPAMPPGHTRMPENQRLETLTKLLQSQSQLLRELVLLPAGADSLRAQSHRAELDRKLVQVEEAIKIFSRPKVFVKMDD
UniProt Q5JPI9: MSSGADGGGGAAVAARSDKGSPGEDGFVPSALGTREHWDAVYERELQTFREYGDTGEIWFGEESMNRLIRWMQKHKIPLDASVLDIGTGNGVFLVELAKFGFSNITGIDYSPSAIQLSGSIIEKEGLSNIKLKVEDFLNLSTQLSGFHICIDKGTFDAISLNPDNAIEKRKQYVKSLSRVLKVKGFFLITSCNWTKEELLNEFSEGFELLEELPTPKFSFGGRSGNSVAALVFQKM
UniProt Q8N5X7: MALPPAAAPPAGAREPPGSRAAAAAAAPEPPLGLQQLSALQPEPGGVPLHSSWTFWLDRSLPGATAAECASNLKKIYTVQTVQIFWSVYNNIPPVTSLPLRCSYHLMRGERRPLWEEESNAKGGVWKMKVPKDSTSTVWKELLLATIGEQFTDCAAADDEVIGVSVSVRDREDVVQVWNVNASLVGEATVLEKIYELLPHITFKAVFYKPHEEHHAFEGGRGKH
UniProt Q8NDI1: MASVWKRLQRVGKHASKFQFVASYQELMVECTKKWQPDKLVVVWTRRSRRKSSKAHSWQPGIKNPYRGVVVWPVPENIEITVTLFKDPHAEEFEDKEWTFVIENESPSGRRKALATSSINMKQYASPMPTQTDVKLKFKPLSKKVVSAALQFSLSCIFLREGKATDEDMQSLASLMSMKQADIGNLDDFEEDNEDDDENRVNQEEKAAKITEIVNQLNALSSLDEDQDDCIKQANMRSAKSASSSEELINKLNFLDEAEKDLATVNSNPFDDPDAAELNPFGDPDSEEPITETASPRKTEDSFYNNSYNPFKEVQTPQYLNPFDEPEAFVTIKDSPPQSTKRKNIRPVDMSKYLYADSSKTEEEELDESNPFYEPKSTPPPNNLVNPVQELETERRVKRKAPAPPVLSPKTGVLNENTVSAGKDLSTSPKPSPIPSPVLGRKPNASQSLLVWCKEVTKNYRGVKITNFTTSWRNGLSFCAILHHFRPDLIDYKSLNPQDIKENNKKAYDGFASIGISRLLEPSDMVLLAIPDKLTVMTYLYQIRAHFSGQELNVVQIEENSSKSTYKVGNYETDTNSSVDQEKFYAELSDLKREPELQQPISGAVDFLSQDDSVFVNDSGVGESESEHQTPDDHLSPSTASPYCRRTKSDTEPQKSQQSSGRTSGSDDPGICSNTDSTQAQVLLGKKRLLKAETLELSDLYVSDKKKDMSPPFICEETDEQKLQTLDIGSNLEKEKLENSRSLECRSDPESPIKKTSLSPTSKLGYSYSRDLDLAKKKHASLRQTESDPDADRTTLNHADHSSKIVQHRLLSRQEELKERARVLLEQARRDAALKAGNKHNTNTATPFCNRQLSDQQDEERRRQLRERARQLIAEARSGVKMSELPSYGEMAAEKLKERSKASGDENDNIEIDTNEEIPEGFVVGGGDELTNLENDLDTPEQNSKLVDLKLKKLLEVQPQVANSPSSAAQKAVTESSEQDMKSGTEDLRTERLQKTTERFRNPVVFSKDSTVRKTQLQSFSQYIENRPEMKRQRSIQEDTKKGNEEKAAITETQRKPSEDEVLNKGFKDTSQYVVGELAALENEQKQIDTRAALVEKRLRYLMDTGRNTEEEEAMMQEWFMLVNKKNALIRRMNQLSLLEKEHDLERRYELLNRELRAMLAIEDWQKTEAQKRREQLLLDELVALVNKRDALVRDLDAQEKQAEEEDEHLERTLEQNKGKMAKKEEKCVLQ
UniProt P26378: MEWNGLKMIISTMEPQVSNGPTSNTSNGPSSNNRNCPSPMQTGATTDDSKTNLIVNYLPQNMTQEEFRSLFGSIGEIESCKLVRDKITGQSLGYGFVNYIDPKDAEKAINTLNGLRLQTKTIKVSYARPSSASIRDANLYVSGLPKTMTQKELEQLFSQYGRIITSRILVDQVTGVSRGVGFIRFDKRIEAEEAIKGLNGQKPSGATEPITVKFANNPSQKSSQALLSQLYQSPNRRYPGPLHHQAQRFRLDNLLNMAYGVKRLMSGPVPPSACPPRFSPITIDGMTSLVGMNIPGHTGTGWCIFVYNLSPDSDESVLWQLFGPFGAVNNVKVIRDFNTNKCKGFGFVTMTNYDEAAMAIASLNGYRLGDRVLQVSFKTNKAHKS

log2 fold change, inactive:
EIF2AK3 (UniProt Q9NZJ5) 0.127
ENTPD4 (UniProt Q9Y227) -0.059
ENTPD7 (UniProt Q9NQZ7) -0.098
EEF2K (UniProt O00418) 0.178
EIF1B (UniProt O60739) -0.342
EFHD1 (UniProt Q9BUP0) -0.013
EPB41L1 (UniProt Q9H4G0) 0.018
EIF3E (UniProt E5RIT4) -0.228
EIF2B4 (UniProt Q9UI10) 0.049
ENPP2 isoform 2 (UniProt Q13822) 0.095
EID1 (UniProt Q9Y6B2) -0.652
EEF1AKMT1 (UniProt Q8WVE0) 0.07
ELOA (UniProt Q14241) -0.292
ELOVL7 (UniProt A1L3X0) -0.09

What follows are targets tested with c1cc(OCCN2CCCCC2)cc(-c2n[nH]c3ccc(-c4nnc[nH]4)cc23)c1 in the same assay as above.
Procedure, shortened: as §1

log2 fold change, inactive:
EFCAB2 (UniProt Q5VUJ9) 0.003
EIF2AK3 (UniProt Q9NZJ5) 0.097
ENTPD4 (UniProt Q9Y227) -0.1
ENTPD7 (UniProt Q9NQZ7) -0.138
EEF2K (UniProt O00418) 0.012
EIF1B (UniProt O60739) -0.058
EPB41L1 (UniProt Q9H4G0) -0.132
EIF4B (UniProt F8VP89) 0.056
EIF2B4 (UniProt Q9UI10) -0.139
ELOA (UniProt Q14241) -0.01
ENKD1 (UniProt Q9H0I2) -0.06
EEF1AKMT2 (UniProt Q5JPI9) -0.03
EIF4E3 (UniProt Q8N5X7) -0.044
EHBP1 (UniProt Q8NDI1) -0.14
ELAVL4 (UniProt P26378) -0.148

Reference: the supplement of paper PMC10849652
